PubChem BioAssay AID1159578 | Peter MacCallum Cancer Centre – 2015

Purpose: 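siRNA pools altering how lymphatic endothelial cells close a scratch wound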 (primary screen)
System: human lymphatic endothelial cells
Reagent: siRNA pool against human genes, 40 nM
Timing: 48 h after transfection
Measurement: 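Cells stained with dye and imaged after a scratch; covered wound area and nuclei counted, duplicates averaged, migration set against mock wells and turned into a robust z-score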
Reading the numbers: migration robust z-score: higher = faster migration into the scratch; migration relative to mock: higher = more scratch area covered than mock; nuclei per well: higher = more cells in the well
Rule for the call: 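Migration changed when robust z exceeds 2 or falls below -2 and mean nuclei number is at least 3300; otherwise not called changed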
Calls: active = migration changed; inactive = no migration change, or too few cells
The deposit covers about 18,000 reagents; shown is an unselected part. About 1,030 of them (5.7%) count as active. 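Inactive calls also include pools with fewer than 3300 nuclei, whose migration was not assessed.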 Raw values vary from plate to plate and are shown uncorrected. Reagents against one gene are numbered here.

| Gene | pool no. | migration robust z-score | migration class with cell-count check | migration relative to mock | nuclei per well, duplicate mean | outcome |
| --- | --- | --- | --- | --- | --- | --- |
| MMP13 (matrix metallopeptidase 13) | 1 | 0.31 | migration z between -2 and 2; enough cells | 0.86 | 4738 | inactive |
| NDUFS4 (NADH:ubiquinone oxidoreductase subunit S4) | 1 | -0.13 | migration z between -2 and 2; enough cells | 0.78 | 4362 | inactive |
| LHPP | 1 | 0.36 | migration z between -2 and 2; enough cells | 0.88 | 5664 | inactive |
| CX3CR1 (C-X3-C motif chemokine receptor 1) | 1 | 0.32 | migration z between -2 and 2; enough cells | 0.86 | 5480 | inactive |
| ADAMTS7 (ADAM metallopeptidase with thrombospondin type 1 motif 7) | 1 | 0.36 | migration z between -2 and 2; enough cells | 0.88 | 5718 | inactive |
| ZBTB24 (zinc finger and BTB domain containing 24) | 1 | 0.09 | migration z between -2 and 2; enough cells | 0.9 | 5384 | inactive |
| ZNF709 (zinc finger protein 709) | 1 | 0.56 | migration z between -2 and 2; enough cells | 1.03 | 5969 | inactive |
| EXOC8 (exocyst complex component 8) | 1 | 0.1 | migration z between -2 and 2; enough cells | 0.91 | 5634 | inactive |
| MZF1 (myeloid zinc finger 1) | 1 | 1.32 | migration z between -2 and 2; enough cells | 1.06 | 6093 | inactive |
| HELZ (helicase with zinc finger) | 1 | -0.54 | migration z between -2 and 2; enough cells | 0.7 | 5065 | inactive |
| KLHL25 (kelch like family member 25) | 1 | -2.31 | migration z below -2; enough cells | 0.29 | 6876 | active |
| TIMM50 (translocase of inner mitochondrial membrane 50) | 1 | -0.34 | migration z between -2 and 2; enough cells | 0.74 | 6650 | inactive |
| GGT2P (gamma-glutamyltransferase 2, pseudogene) | 1 | 0.18 | migration z between -2 and 2; enough cells | 0.84 | 5895 | inactive |
| CPA6 (carboxypeptidase A6) | 1 | 0.76 | migration z between -2 and 2; enough cells | 0.95 | 5603 | inactive |
| KCNJ16 (potassium inwardly rectifying channel subfamily J member 16) | 1 | 0.57 | migration z between -2 and 2; enough cells | 0.92 | 6330 | inactive |
| PDCD6IP (programmed cell death 6 interacting protein) | 1 | -1.05 | migration z between -2 and 2; enough cells | 0.61 | 6480 | inactive |
| TUBB6 (tubulin beta 6 class V) | 1 | 0.34 | migration z between -2 and 2; enough cells | 0.87 | 6438 | inactive |
| CEP97 (centrosomal protein 97) | 1 | 0.31 | migration z between -2 and 2; enough cells | 0.96 | 6198 | inactive |
| P4HA2 (prolyl 4-hydroxylase subunit alpha 2) | 1 | 0.52 | migration z between -2 and 2; enough cells | 0.9 | 5054 | inactive |
| HAX1 (HCLS1 associated protein X-1) | 1 | -0.68 | under 3300 nuclei; migration not judged | 0.71 | 3084 | inactive |
| RAB14 (RAB14, member RAS oncogene family) | 1 | 0.71 | migration z between -2 and 2; enough cells | 1.07 | 5705 | inactive |
| AGBL5 (AGBL carboxypeptidase 5) | 1 | -1.54 | migration z between -2 and 2; enough cells | 0.49 | 4482 | inactive |
| DDX42 (DEAD-box helicase 42) | 1 | -1.48 | migration z between -2 and 2; enough cells | 0.5 | 5270 | inactive |
| RETREG3 (reticulophagy regulator family member 3) | 1 | 2.2 | migration z above 2; enough cells | 1.46 | 6274 | active |
| CDKN1A (cyclin dependent kinase inhibitor 1A) | 1 | -1.38 | migration z between -2 and 2; enough cells | 0.54 | 4824 | inactive |
| CCDC170 (coiled-coil domain containing 170) | 1 | -0.56 | migration z between -2 and 2; enough cells | 0.74 | 5786 | inactive |
| ARHGEF39 (Rho guanine nucleotide exchange factor 39) | 1 | -0.67 | migration z between -2 and 2; enough cells | 0.71 | 5292 | inactive |
| SPRYD7 (SPRY domain containing 7) | 1 | -0.45 | migration z between -2 and 2; enough cells | 0.78 | 6107 | inactive |
| PNPLA3 | 1 | -2.06 | migration z below -2; enough cells | 0.36 | 3763 | active |
| OR4C11 (olfactory receptor family 4 subfamily C member 11) | 1 | 0.25 | migration z between -2 and 2; enough cells | 0.95 | 6093 | inactive |
| LUZP4 (leucine zipper protein 4) | 1 | -0.06 | migration z between -2 and 2; enough cells | 0.88 | 4836 | inactive |

Entries above whose gene name begins with C or c (5):
| Gene | pool no. | migration robust z-score | migration class with cell-count check | migration relative to mock | nuclei per well, duplicate mean | outcome |
| --- | --- | --- | --- | --- | --- | --- |
| CX3CR1 (C-X3-C motif chemokine receptor 1) | 1 | 0.32 | migration z between -2 and 2; enough cells | 0.86 | 5480 | inactive |
| CPA6 (carboxypeptidase A6) | 1 | 0.76 | migration z between -2 and 2; enough cells | 0.95 | 5603 | inactive |
| CEP97 (centrosomal protein 97) | 1 | 0.31 | migration z between -2 and 2; enough cells | 0.96 | 6198 | inactive |
| CDKN1A (cyclin dependent kinase inhibitor 1A) | 1 | -1.38 | migration z between -2 and 2; enough cells | 0.54 | 4824 | inactive |
| CCDC170 (coiled-coil domain containing 170) | 1 | -0.56 | migration z between -2 and 2; enough cells | 0.74 | 5786 | inactive |

The list goes on.
| Gene | pool no. | migration robust z-score | migration class with cell-count check | migration relative to mock | nuclei per well, duplicate mean | outcome |
| --- | --- | --- | --- | --- | --- | --- |
| TRIM16 (tripartite motif containing 16) | 1 | 0.51 | migration z between -2 and 2; enough cells | 1.02 | 5793 | inactive |
| SUMO4 (small ubiquitin like modifier 4) | 1 | -0.22 | migration z between -2 and 2; enough cells | 0.83 | 5411 | inactive |
| CDH17 (cadherin 17) | 1 | 0.5 | migration z between -2 and 2; enough cells | 0.9 | 5738 | inactive |
| RGL3 (ral guanine nucleotide dissociation stimulator like 3) | 1 | -1.02 | migration z between -2 and 2; enough cells | 0.62 | 5921 | inactive |
| ATF5 (activating transcription factor 5) | 1 | -0.08 | migration z between -2 and 2; enough cells | 0.79 | 6312 | inactive |
| FBLN2 (fibulin 2) | 1 | -0.21 | migration z between -2 and 2; enough cells | 0.83 | 5430 | inactive |
| KIF21B (kinesin family member 21B) | 1 | -0.36 | migration z between -2 and 2; enough cells | 0.74 | 6536 | inactive |
| LCA5L (lebercilin LCA5 like) | 1 | 2.06 | migration z above 2; enough cells | 1.42 | 7406 | active |
| PITX3 (paired like homeodomain 3) | 1 | -0.24 | migration z between -2 and 2; enough cells | 0.76 | 6120 | inactive |
| CTSA (cathepsin A) | 1 | 0.52 | migration z between -2 and 2; enough cells | 0.9 | 5994 | inactive |
| ZDHHC14 (zDHHC palmitoyltransferase 14) | 1 | 1.34 | migration z between -2 and 2; enough cells | 1.23 | 6164 | inactive |
| MKI67 (marker of proliferation Ki-67) | 1 | 0.11 | migration z between -2 and 2; enough cells | 0.92 | 6676 | inactive |
| CDKL5 (cyclin dependent kinase like 5) | 1 | -2.39 | migration z below -2; enough cells | 0.34 | 4294 | active |
| TEAD1 (TEA domain transcription factor 1) | 1 | 1.42 | migration z between -2 and 2; enough cells | 1.08 | 4605 | inactive |
| H3-4 (H3.4 histone, cluster member) | 1 | -1.58 | migration z between -2 and 2; enough cells | 0.48 | 4364 | inactive |
| ZNF622 (zinc finger protein 622) | 1 | -0.78 | migration z between -2 and 2; enough cells | 0.68 | 4860 | inactive |
| PCGF2 (polycomb group ring finger 2) | 1 | -1.58 | migration z between -2 and 2; enough cells | 0.5 | 6098 | inactive |
| OGN (osteoglycin) | 1 | 0.15 | migration z between -2 and 2; enough cells | 0.92 | 5415 | inactive |
| NKAPD1 (NKAP domain containing 1) | 1 | 1.56 | migration z between -2 and 2; enough cells | 1.28 | 5956 | inactive |
| USP15 (ubiquitin specific peptidase 15) | 1 | 0.16 | migration z between -2 and 2; enough cells | 0.84 | 5184 | inactive |
| ASB13 (ankyrin repeat and SOCS box containing 13) | 1 | -1.82 | migration z between -2 and 2; enough cells | 0.45 | 5817 | inactive |
| DXO (decapping exoribonuclease) | 1 | -0.48 | migration z between -2 and 2; enough cells | 0.76 | 5750 | inactive |
| ITM2C (integral membrane protein 2C) | 1 | -1.54 | migration z between -2 and 2; enough cells | 0.48 | 4974 | inactive |
| BRD1 (bromodomain containing 1) | 1 | -0.86 | migration z between -2 and 2; enough cells | 0.66 | 6139 | inactive |
| RDH13 (retinol dehydrogenase 13) | 1 | 1.56 | migration z between -2 and 2; enough cells | 1.1 | 5708 | inactive |
| CFAP206 (cilia and flagella associated protein 206) | 1 | 0.92 | migration z between -2 and 2; enough cells | 1.12 | 5766 | inactive |
| TADA1 (transcriptional adaptor 1) | 1 | -0.08 | migration z between -2 and 2; enough cells | 0.86 | 6634 | inactive |
| SPEF2 (sperm flagellar and cilia associated 2) | 1 | 0.72 | migration z between -2 and 2; enough cells | 1.07 | 5508 | inactive |
| JAG1 (jagged canonical Notch ligand 1) | 1 | 0.16 | migration z between -2 and 2; enough cells | 0.84 | 4996 | inactive |
| SLC4A11 | 1 | -0.92 | migration z between -2 and 2; enough cells | 0.64 | 5490 | inactive |
| PHF19 (PHD finger protein 19) | 1 | 0.68 | migration z between -2 and 2; enough cells | 0.94 | 5534 | inactive |
| UCN2 (urocortin 2) | 1 | 0.5 | migration z between -2 and 2; enough cells | 1.02 | 6490 | inactive |
| SYT12 (synaptotagmin 12) | 1 | 1 | migration z between -2 and 2; enough cells | 1.15 | 5968 | inactive |
| DEPDC7 (DEP domain containing 7) | 1 | 0.52 | migration z between -2 and 2; enough cells | 1.02 | 6178 | inactive |
| RBCK1 (RANBP2-type and C3HC4-type zinc finger containing 1) | 1 | -0.05 | migration z between -2 and 2; enough cells | 0.8 | 5359 | inactive |
| TRA2A (transformer 2 alpha homolog) | 1 | 1.1 | migration z between -2 and 2; enough cells | 1.17 | 4374 | inactive |
| FSIP2 (fibrous sheath interacting protein 2) | 1 | 2.76 | migration z above 2; enough cells | 1.6 | 5528 | active |
| FSIP2 (fibrous sheath interacting protein 2) | 2 | 2.02 | migration z above 2; enough cells | 1.41 | 5458 | active |
| OR4M1 (olfactory receptor family 4 subfamily M member 1) | 1 | -0.52 | migration z between -2 and 2; enough cells | 0.74 | 6582 | inactive |
| CKM (creatine kinase, M-type) | 1 | -3.04 | migration z below -2; enough cells | 0.22 | 5234 | active |
| STRA6 (signaling receptor and transporter of retinol STRA6) | 1 | 1.8 | migration z between -2 and 2; enough cells | 1.35 | 5764 | inactive |
| KPNA2 (karyopherin subunit alpha 2) | 1 | 0.13 | migration z between -2 and 2; enough cells | 0.83 | 6350 | inactive |
